Assay results reported in the supplement of paper PMC10849652.
The other results are listed elsewhere or left out.

Amino acid sequences for entries named in this document (tags omitted). A change or cut given only in a name is not applied to a line headed by its entry.
UniProt Q13123, whole entry, looked up: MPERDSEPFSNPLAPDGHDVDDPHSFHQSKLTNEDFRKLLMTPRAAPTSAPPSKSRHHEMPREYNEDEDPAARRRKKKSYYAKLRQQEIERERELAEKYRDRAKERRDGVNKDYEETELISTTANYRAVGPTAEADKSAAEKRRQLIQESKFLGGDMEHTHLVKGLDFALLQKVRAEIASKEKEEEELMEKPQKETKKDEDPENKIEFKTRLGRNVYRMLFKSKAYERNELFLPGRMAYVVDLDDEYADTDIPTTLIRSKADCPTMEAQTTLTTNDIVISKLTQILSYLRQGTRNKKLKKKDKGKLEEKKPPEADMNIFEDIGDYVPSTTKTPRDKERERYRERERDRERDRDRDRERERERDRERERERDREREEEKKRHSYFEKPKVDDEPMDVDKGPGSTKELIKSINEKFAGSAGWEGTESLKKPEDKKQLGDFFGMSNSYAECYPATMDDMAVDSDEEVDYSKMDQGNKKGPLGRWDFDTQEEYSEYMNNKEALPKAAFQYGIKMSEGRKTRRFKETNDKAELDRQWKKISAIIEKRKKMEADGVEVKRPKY
UniProt O75054: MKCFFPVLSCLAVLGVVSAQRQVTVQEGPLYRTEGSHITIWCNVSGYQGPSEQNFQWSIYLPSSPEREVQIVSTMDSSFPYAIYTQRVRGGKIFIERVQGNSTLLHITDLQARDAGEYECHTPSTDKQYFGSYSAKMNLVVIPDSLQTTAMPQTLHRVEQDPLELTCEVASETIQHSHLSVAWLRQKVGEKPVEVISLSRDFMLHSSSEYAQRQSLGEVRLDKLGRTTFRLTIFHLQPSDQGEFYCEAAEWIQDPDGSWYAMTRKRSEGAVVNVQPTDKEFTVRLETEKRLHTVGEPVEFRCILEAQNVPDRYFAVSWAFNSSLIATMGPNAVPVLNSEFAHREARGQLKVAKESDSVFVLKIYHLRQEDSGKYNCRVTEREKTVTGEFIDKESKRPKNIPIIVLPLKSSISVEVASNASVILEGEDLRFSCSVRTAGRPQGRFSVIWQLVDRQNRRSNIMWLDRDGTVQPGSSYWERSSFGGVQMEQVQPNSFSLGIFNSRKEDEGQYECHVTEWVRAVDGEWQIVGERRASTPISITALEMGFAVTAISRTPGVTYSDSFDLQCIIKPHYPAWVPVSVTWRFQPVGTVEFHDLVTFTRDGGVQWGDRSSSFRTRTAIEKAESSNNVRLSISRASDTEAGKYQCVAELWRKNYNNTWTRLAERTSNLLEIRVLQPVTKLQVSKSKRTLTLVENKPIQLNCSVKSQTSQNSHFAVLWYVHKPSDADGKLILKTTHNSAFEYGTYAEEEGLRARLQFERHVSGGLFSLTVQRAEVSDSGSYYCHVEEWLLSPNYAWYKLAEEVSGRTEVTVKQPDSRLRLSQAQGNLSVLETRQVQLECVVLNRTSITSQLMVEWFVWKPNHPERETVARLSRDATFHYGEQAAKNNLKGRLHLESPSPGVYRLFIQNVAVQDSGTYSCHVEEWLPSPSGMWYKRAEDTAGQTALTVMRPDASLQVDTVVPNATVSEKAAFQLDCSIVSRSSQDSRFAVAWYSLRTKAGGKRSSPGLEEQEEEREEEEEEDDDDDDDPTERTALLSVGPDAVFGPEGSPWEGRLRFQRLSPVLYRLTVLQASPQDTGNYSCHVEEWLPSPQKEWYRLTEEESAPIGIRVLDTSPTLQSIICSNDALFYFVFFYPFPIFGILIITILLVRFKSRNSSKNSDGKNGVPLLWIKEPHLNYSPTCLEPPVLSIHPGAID
UniProt Q9P2D0: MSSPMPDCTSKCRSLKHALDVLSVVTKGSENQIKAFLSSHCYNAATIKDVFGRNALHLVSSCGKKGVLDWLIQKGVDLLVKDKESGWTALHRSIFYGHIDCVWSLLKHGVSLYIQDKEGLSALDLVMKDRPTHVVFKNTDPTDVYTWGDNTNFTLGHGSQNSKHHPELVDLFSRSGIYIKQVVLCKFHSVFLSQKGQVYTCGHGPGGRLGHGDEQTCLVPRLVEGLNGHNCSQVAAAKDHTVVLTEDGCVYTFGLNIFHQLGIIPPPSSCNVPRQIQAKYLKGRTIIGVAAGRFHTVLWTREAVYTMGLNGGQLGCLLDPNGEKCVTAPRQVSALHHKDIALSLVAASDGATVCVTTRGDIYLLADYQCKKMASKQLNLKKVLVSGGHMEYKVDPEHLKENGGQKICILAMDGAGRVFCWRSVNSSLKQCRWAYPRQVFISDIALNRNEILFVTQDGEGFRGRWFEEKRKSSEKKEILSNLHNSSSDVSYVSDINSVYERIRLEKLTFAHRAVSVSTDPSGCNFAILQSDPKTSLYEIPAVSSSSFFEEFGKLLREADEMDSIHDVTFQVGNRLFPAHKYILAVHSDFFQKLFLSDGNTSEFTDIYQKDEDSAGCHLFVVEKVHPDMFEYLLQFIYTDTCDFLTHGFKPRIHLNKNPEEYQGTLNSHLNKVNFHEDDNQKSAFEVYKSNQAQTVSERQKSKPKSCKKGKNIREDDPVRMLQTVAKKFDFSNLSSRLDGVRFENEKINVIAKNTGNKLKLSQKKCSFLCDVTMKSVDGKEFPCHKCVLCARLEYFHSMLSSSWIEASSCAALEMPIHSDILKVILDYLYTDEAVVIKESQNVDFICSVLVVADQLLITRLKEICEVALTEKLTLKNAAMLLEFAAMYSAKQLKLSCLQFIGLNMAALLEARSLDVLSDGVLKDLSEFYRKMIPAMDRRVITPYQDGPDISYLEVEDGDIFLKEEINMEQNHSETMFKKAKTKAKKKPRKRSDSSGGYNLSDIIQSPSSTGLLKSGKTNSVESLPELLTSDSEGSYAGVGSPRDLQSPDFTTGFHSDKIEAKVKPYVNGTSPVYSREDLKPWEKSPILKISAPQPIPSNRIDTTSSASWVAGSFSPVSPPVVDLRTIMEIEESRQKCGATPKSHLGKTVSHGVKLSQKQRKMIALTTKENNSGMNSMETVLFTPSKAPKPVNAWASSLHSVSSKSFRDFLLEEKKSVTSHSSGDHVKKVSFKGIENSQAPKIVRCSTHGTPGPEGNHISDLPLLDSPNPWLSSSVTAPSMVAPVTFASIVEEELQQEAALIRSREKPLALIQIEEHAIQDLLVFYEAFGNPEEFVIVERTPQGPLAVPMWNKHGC
UniProt P13598: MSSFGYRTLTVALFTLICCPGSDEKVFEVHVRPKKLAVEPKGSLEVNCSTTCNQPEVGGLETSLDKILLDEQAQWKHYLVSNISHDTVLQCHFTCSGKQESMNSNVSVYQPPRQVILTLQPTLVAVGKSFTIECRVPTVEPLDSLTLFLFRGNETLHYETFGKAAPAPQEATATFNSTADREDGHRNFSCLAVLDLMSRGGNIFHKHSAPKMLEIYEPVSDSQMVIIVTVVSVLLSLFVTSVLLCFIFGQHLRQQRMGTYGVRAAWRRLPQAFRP
UniProt Q8NBZ0, whole entry, looked up: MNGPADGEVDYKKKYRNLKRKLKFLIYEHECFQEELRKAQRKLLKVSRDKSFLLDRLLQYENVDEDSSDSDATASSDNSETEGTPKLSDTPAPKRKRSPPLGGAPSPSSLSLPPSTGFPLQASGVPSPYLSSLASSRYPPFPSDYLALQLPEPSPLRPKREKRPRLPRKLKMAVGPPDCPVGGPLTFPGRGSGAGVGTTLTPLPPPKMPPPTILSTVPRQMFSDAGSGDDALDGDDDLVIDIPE
UniProt Q8N201, whole entry, looked up: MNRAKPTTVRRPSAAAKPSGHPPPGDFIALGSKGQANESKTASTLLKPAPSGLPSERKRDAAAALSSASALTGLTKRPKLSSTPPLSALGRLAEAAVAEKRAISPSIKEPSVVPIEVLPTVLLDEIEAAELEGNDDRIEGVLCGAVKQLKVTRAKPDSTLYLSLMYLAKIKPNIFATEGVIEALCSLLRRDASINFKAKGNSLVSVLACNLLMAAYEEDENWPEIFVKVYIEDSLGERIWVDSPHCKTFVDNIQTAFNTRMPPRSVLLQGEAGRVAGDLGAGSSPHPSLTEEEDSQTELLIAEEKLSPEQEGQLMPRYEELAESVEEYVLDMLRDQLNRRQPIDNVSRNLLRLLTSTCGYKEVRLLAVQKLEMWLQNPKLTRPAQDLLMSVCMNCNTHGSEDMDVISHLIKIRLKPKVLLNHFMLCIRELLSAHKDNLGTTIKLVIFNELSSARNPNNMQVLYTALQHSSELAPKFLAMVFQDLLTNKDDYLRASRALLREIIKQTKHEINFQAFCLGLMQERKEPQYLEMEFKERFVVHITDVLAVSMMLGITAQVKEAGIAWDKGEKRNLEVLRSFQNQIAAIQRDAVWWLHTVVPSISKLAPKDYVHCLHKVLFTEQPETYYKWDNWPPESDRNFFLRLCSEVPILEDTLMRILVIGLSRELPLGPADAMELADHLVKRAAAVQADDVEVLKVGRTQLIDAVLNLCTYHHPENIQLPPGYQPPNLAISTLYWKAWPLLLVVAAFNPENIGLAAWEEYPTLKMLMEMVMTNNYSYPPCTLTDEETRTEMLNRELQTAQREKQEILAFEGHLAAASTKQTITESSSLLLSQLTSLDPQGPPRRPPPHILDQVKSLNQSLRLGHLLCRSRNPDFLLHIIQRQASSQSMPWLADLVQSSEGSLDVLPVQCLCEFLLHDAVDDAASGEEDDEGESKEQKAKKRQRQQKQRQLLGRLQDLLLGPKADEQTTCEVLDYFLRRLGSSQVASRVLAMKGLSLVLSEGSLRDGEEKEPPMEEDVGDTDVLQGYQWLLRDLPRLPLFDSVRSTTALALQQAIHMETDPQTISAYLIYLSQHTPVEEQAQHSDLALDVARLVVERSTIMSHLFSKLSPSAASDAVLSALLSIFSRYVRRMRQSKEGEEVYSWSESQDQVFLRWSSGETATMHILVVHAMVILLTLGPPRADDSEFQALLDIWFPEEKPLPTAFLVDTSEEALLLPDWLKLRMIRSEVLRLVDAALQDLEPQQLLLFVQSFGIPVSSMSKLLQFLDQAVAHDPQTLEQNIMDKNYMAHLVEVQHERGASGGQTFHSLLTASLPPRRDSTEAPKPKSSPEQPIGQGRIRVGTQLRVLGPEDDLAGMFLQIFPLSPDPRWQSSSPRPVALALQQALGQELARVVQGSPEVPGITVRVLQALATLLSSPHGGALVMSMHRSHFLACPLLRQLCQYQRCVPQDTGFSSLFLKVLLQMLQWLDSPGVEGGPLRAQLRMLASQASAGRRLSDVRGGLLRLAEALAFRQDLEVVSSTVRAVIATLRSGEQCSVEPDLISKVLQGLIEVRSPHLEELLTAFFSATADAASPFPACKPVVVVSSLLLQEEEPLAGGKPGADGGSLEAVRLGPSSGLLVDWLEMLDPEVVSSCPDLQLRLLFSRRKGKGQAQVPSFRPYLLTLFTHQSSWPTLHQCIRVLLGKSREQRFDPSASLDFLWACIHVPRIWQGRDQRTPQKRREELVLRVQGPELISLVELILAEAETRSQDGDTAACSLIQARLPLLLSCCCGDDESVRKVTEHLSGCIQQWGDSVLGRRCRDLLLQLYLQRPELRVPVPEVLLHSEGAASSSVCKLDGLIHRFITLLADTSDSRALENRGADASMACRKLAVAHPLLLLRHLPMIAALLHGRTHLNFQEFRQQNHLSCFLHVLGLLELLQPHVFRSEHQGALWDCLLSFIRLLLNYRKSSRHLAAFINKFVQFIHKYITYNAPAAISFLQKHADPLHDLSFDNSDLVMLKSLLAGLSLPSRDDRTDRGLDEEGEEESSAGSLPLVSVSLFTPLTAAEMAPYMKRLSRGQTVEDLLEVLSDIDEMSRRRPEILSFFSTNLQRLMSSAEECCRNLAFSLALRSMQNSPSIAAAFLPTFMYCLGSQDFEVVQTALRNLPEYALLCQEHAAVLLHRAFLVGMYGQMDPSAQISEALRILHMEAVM
UniProt Q9Y6M1: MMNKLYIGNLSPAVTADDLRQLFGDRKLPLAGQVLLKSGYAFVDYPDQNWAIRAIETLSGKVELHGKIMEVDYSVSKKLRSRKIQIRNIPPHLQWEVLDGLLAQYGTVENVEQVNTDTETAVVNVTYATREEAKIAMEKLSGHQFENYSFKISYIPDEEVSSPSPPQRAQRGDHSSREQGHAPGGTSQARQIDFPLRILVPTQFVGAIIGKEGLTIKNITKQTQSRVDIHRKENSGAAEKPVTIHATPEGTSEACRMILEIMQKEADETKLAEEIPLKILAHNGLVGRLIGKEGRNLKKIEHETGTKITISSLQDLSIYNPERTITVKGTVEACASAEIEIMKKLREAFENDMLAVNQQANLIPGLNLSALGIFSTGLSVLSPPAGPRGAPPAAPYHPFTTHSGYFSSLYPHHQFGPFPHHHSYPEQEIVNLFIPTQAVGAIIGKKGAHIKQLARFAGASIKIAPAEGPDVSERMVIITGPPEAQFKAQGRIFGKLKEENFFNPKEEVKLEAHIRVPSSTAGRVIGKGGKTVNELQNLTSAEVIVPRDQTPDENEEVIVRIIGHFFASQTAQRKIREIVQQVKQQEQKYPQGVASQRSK
UniProt Q96LU5: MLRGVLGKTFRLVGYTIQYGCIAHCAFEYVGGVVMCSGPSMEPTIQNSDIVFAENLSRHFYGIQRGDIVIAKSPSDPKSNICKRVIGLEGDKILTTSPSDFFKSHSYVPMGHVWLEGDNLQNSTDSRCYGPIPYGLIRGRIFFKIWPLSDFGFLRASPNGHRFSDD

The targets below were run with NC(=O)c1cnc(N[C@@H]2CCCC[C@@H]2N)nc1Nc1cccc(-n2nccn2)c1 (assay: log2 fold change, soluble protein after heating vs DMSO (PISA); higher = thermal stabilisation; K562 lysate, 10 uM; active = over 0.2 and 3.5 SD of the protein, either way, in both replicates (recomputed)).
How it was run: (§1)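 Pellets of K562 cells were dounce-homogenised in PBS pH 7.4 with 1 mM MgCl2, and the crude extract was held at 1 mg/mL protein for a 30 min treatment with 10 μM compound. Aliquots were heated for 3 min over 48°C-58°C and pooled before NP-40 was added to 0.5% at 4°C. The supernatant from 21,000xg for 90 min was quantified by TMTpro 16plex LC-MS/MS with channel sums equalised. Values are reported from duplicates as log-two fold change in thermal stability relative to solvent controls.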

log2 fold change, inactive:
IL18 (UniProt Q14116) 0.024, IK (UniProt Q13123) -0.015, IGSF3 (UniProt O75054) 0.066, IMPDH2 (UniProt H0Y4R1) -0.01, HSPB11 (UniProt Q9Y547) -0.023, IBTK (UniProt Q9P2D0) -0.057, IGBP1 (UniProt P78318) -0.005, INPP4A (UniProt Q96PE3) 0.015, IGFBP4 (UniProt P22692) 0.293, INPP5B (UniProt P32019) -0.003, HYOU1 (UniProt J3QL06) 0.094, IFT57 (UniProt Q9NWB7) -0.05, IFT74 (UniProt Q96LB3) 0.003, IDH3G (UniProt P51553) 0.029, IMPAD1 (UniProt Q9NX62) 0.017, ILF3 isoform 7 (UniProt Q12906) -0.004, HSPBAP1 (UniProt Q96EW2) -0.056, ICAM2 (UniProt P13598) -0.004, INO80E (UniProt Q8NBZ0) 0.175, IGHMBP2 (UniProt P38935) -0.082, INTS1 (UniProt Q8N201) -0.038, IL27RA (UniProt Q6UWB1) 0.059, HSPA8 (UniProt E9PN89) 0.084, IGF2BP2 (UniProt Q9Y6M1) 0.016, ILRUN (UniProt Q9H6K1) 0.041, IMMP1L (UniProt Q96LU5) 0.016, IDH2 (UniProt P48735) 0.011, ICE2 (UniProt Q659A1) 0.043

Each target was assayed with NC1(c2ccc(-c3nc4ccn5c(=O)[nH]nc5c4cc3-c3ccccc3)cc2)CCC1 in the same assay as above.
How it was run: as §1

log2 fold change, inactive:
IL18 (UniProt Q14116) 0.001, IK (UniProt Q13123) 0.01, ID1 (UniProt P41134) 0.037, IGSF3 (UniProt O75054) -0.027, HSPB11 (UniProt Q9Y547) -0.031, IBTK (UniProt Q9P2D0) 0.006, IGBP1 (UniProt P78318) 0.011, INPP4A (UniProt Q96PE3) 0.032, IGFBP4 (UniProt P22692) -0.026, INPP5B (UniProt P32019) 0.001, HTT (UniProt P42858) 0.005, HYOU1 (UniProt J3QL06) -0.164, IGHA1 (UniProt P01876) 1.1, IFT57 (UniProt Q9NWB7) -0.097, IFT74 (UniProt Q96LB3) -0.101, IDH3G (UniProt P51553) 0.006, IMPAD1 (UniProt Q9NX62) -0.001, ILF3 isoform 7 (UniProt Q12906) 0.01, HSPBAP1 (UniProt Q96EW2) 0.032, ICAM2 (UniProt P13598) 0.018, INO80E (UniProt Q8NBZ0) -0.153, IGHMBP2 (UniProt P38935) -0.06, IGHG1 (UniProt P01857) 0.794, INTS1 (UniProt Q8N201) 0.011, IL27RA (UniProt Q6UWB1) -0.016, HSPA8 (UniProt E9PN89) -0.089, IGF2BP2 (UniProt Q9Y6M1) 0.019, ILRUN (UniProt Q9H6K1) -0.038, IMMP1L (UniProt Q96LU5) -0.065, IDH2 (UniProt P48735) 0.004, ICE2 (UniProt Q659A1) 0.009
